Data taken from PubChem BioAssay AID602234 (The Scripps Research Institute Molecular Screening Center, 2012).

Assay: NCOA3 reporter inhibition potency – cell-based, luminescence, counter-screen for SRC1 inhibitor project, dose response (AID 602234);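 further: HEK293 cells co-transfected with pGL4.31 reporter and pBIND-SRC3 fusion vector; potency for inhibition of reporter luminescence with Gossypol as full inhibition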
Conditions: transfected HEK293 cells, counter-screen luciferase reporter

CN(C)C(=O)c1cccc(COc2ccc(N3C(N)=NC(N)=NC3(C)C)cc2Cl)c1
IC50: 7.48 µM
